Results as given in PMC4777538.
No constants are given. Whether binding was seen depends on the method and setting. Binding seen in cells or lysates may run through a third protein.

Chains of the proteins cited; added tags and fusions are not shown.
UniProt P10275: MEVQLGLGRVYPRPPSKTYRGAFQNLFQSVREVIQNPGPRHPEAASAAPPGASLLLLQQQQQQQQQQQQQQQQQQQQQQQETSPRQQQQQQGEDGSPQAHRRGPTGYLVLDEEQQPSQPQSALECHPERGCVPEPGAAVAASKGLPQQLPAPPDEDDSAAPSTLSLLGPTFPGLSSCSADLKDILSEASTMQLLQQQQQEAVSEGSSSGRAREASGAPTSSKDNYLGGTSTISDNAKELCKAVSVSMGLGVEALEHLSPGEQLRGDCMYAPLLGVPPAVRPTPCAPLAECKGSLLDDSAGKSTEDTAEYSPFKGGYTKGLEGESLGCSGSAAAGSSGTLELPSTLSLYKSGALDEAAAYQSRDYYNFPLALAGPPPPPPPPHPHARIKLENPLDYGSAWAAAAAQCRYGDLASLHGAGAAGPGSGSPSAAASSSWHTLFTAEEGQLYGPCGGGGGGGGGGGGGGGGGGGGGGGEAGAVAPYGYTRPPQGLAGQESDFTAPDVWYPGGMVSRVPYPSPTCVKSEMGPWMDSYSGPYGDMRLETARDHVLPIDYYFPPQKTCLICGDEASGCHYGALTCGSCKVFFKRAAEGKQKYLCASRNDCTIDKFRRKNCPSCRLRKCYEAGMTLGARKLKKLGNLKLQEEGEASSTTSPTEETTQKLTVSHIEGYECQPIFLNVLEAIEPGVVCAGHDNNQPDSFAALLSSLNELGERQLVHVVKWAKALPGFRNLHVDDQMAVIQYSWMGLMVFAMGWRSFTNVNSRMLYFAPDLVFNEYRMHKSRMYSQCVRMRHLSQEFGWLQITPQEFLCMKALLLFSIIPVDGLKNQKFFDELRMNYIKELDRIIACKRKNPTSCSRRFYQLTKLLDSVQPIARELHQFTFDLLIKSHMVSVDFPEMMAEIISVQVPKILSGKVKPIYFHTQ

Biological target: T1, CCCTC-binding factor (CTCF) (human (endogenous in RWPE-1 and LNCaP)) (UniProt P49711)
T1 sequence: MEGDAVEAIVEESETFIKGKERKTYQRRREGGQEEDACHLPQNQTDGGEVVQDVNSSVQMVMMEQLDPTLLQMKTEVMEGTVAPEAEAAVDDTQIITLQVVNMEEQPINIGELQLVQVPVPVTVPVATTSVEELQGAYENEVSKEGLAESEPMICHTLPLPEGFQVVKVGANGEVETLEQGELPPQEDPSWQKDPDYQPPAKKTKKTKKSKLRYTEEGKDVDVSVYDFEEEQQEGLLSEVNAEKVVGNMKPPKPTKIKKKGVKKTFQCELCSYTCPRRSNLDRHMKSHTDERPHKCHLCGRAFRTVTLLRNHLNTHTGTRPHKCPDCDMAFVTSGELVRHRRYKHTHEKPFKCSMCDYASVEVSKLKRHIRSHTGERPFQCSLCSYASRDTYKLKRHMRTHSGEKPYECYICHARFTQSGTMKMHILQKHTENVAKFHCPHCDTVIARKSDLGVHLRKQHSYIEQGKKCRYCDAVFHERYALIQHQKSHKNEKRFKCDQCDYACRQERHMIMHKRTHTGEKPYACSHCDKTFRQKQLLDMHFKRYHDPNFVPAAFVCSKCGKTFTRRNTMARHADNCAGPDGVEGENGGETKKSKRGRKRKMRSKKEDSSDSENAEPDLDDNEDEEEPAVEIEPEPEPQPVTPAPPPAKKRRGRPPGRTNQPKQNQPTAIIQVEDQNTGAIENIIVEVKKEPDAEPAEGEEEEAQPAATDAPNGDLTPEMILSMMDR
Assay: co-IP; immunoprecipitation by CTCF antibody, western blotting by AR, CTCF or GAPDH; RWPE-1 and LNCaP cells, LNCaP also with synthetic androgen R1881

Substance: androgen receptor (AR) (from UniProt P10275 1-920)
- binding: no binding
